No constants are given. Whether binding was seen depends on the method and setting. Binding seen in cells or lysates may run through a third protein. Some entries that bind do so weakly or less than the wild type. For some assays here: Where a sequence is shown, tags or fusion partners need not be part of it.
Experiments:
[1] = biological target: T1, FLAG-tagged METTL14 (human) (UniProt Q9HCE5); assay: co-IP; GFP-PAK5 and FLAG-METTL14 in HEK-293 cells; IP lysis buffer, Protein A/G agarose beads, overnight at 4 °C
T1 sequence: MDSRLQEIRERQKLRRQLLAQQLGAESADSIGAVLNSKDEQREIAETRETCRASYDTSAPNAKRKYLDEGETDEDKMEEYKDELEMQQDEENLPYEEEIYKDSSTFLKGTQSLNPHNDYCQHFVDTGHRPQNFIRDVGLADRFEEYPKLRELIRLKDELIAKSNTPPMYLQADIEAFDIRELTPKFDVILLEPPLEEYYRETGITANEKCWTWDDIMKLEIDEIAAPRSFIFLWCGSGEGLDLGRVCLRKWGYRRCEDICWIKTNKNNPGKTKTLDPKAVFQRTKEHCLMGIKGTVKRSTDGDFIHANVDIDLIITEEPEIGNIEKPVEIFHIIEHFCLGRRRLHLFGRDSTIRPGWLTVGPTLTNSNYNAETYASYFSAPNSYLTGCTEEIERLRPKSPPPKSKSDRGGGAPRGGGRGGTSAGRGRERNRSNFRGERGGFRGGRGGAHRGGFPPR

Protein sequences, listed by entry. Tags and fused reporters are not part of them.
UniProt Q9P286: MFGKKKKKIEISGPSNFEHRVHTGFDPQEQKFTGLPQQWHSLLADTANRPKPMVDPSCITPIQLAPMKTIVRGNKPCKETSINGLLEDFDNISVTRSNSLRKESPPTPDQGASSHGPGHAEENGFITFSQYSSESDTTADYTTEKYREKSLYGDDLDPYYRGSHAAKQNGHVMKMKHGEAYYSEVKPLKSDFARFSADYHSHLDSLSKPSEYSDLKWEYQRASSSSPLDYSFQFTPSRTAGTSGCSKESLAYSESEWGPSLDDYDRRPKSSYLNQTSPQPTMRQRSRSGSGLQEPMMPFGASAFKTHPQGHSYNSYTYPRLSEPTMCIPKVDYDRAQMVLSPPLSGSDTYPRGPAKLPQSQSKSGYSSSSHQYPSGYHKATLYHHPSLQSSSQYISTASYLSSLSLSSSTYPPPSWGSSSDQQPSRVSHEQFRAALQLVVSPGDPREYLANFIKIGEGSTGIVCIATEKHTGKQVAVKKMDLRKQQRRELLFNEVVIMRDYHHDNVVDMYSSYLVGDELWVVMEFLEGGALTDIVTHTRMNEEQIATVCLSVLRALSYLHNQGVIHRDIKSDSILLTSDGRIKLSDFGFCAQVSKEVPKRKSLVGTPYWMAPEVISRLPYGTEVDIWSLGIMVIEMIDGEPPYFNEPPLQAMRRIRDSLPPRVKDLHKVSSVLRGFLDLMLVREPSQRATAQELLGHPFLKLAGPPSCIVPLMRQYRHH

GST-METTL14 (human) = biological target: T2, GST-METTL14 (human) (UniProt Q9HCE5); assay: pull-down; GST pulldown; details are referred to ref. 57
T2 sequence: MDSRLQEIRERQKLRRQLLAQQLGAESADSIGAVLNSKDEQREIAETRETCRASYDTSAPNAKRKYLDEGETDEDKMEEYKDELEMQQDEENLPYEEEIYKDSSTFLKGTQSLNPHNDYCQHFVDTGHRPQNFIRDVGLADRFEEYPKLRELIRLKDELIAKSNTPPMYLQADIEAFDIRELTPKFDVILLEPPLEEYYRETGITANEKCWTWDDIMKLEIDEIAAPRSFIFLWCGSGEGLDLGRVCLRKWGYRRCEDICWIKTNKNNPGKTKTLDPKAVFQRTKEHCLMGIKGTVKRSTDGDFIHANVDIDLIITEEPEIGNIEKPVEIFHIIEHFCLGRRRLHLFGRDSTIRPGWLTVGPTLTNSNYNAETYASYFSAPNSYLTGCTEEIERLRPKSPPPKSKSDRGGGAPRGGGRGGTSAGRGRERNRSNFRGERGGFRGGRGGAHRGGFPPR

[2] = biological target: T3, METTL14 (human (endogenous in SK-BR-3)) (UniProt Q9HCE5); assay: co-IP; endogenous proteins in SK-BR-3 cells; IP lysis buffer, Protein A/G agarose beads, overnight at 4 °C
T3 sequence: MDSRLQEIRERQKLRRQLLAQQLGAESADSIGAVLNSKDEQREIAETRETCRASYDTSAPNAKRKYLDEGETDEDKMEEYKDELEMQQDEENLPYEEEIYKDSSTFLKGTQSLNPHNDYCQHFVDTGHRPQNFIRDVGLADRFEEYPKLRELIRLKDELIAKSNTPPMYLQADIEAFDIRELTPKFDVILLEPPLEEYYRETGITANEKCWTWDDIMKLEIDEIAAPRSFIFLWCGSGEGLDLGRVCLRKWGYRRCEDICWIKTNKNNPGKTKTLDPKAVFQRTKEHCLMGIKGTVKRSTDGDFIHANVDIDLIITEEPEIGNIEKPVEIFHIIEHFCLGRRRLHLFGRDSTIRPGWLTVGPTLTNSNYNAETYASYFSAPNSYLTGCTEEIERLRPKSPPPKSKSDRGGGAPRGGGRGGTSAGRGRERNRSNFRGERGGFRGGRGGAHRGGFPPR

[3] = biological target: HER2 (human (endogenous in SK-BR-3 and BT474)) (UniProt P04626); assay: co-IP; IP and IB on cytoplasmic and nuclear protein extracts of SK-BR-3 cells; which of the two was precipitated is not told
[4] = biological target: HER2 (human (endogenous in SK-BR-3 and BT474)) (UniProt P04626); assay: co-IP; IP and IB in SK-BR-3 cells transfected with the indicated plasmids (MALAT1 overexpression, Fig. 3G), in BT474 cells with FLAG vector or FLAG-PAK5 and MALAT1 siRNA or control (Fig. 3H), and in BT474 cells with PAK5 WT or PAK5 KM (Fig. 6K); Protein A/G agarose beads, overnight at 4 °C

Molecule: GFP-tagged PAK5 (from UniProt Q9P286 1-719) (enzyme)
- binding [1]: binds

Molecule: PAK5 (as used in the GST pulldown) (from UniProt Q9P286 1-719) (enzyme)
- binding (GST-METTL14 (human)): binds

Molecule: PAK5 (from UniProt Q9P286 1-719) (enzyme)
- binding [2]: binds

B1: deubiquitinase USP8 (enzyme, UniProt P40818 1-1118)
chain: MPAVASVPKELYLSSSLKDLNKKTEVKPEKISTKSYVHSALKIFKTAEECRLDRDEERAYVLYMKYVTVYNLIKKRPDFKQQQDYFHSILGPGNIKKAVEEAERLSESLKLRYEEAEVRKKLEEKDRQEEAQRLQQKRQETGREDGGTLAKGSLENVLDSKDKTQKSNGEKNEKCETKEKGAITAKELYTMMTDKNISLIIMDARRMQDYQDSCILHSLSVPEEAISPGVTASWIEAHLPDDSKDTWKKRGNVEYVVLLDWFSSAKDLQIGTTLRSLKDALFKWESKTVLRNEPLVLEGGYENWLLCYPQYTTNAKVTPPPRRQNEEVSISLDFTYPSLEESIPSKPAAQTPPASIEVDENIELISGQNERMGPLNISTPVEPVAASKSDVSPIIQPVPSIKNVPQIDRTKKPAVKLPEEHRIKSESTNHEQQSPQSGKVIPDRSTKPVVFSPTLMLTDEEKARIHAETALLMEKNKQEKELRERQQEEQKEKLRKEEQEQKAKKKQEAEENEITEKQQKAKEEMEKKESEQAKKEDKETSAKRGKEITGVKRQSKSEHETSDAKKSVEDRGKRCPTPEIQKKSTGDVPHTSVTGDSGSGKPFKIKGQPESGILRTGTFREDTDDTERNKAQREPLTRARSEEMGRIVPGLPSGWAKFLDPITGTFRYYHSPTNTVHMYPPEMAPSSAPPSTPPTHKAKPQIPAERDREPSKLKRSYSSPDITQAIQEEEKRKPTVTPTVNRENKPTCYPKAEISRLSASQIRNLNPVFGGSGPALTGLRNLGNTCYMNSILQCLCNAPHLADYFNRNCYQDDINRSNLLGHKGEVAEEFGIIMKALWTGQYRYISPKDFKITIGKINDQFAGYSQQDSQELLLFLMDGLHEDLNKADNRKRYKEENNDHLDDFKAAEHAWQKHKQLNESIIVALFQGQFKSTVQCLTCHKKSRTFEAFMYLSLPLASTSKCTLQDCLRLFSKEEKLTDNNRFYCSHCRARRDSLKKIEIWKLPPVLLVHLKRFSYDGRWKQKLQTSVDFPLENLDLSQYVIGPKNNLKKYNLFSVSNHYGGLDGGHYTAYCKNAARQRWFKFDDHEVSDISVSSVKSSAAYILFYTSLGPRVTDVAT
- binding [3]: binds
- binding [4]: binds
